Reference: publication PMC10935867
These are yes or no findings as the source states them, for the method shown. Binding seen in cells or lysates may run through a third protein. Some binding calls cover weakened binding; strength is not graded here.

The chains behind the UniProt entries cited, without tags or fusion partners. Residues count along the entry.
UniProt P05106, residues 27-788: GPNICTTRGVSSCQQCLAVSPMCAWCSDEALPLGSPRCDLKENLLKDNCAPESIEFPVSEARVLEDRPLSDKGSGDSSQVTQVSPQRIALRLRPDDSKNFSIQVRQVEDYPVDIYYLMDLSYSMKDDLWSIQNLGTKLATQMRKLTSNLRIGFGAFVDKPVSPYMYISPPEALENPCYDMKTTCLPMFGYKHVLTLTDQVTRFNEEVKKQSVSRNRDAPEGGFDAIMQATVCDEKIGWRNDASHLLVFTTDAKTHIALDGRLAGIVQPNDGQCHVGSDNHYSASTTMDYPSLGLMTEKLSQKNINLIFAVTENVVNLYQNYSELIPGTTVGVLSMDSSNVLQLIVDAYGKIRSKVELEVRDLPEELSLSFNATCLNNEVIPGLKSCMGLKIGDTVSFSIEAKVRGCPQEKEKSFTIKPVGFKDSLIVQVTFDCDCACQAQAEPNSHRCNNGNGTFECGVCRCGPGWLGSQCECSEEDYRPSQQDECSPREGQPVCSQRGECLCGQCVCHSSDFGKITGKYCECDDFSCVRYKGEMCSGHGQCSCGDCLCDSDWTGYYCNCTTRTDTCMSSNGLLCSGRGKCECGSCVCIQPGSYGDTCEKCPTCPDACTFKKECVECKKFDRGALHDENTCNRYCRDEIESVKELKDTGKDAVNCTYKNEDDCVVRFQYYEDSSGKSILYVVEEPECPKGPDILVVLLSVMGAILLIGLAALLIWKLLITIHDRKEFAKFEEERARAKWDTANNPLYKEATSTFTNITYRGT

Molecular target: integrin beta 3 (ITGB3) (human (endogenous in AGS)) (UniProt P05106)
Experiment: co-IP; cell lysates (50 mM Tris-HCl pH 7.4, 5 mM EDTA, 1% Triton X-100, 150 mM NaCl, protease inhibitors) incubated with antibody-bound protein A/G agarose beads at 4 °C overnight, washed 5 times with PBS, Western blot; AGS cells with or without DAB2 knockdown, HGC27 cells with or without DAB2 overexpression

B1: Disabled homolog 2 (DAB2) (protein, UniProt P98082 1-770)
chain: MSNEVETSATNGQPDQQAAPKAPSKKEKKKGPEKTDEYLLARFKGDGVKYKAKLIGIDDVPDARGDKMSQDSMMKLKGMAAAGRSQGQHKQRIWVNISLSGIKIIDEKTGVIEHEHPVNKISFIARDVTDNRAFGYVCGGEGQHQFFAIKTGQQAEPLVVDLKDLFQVIYNVKKKEEEKKKIEEASKAVENGSEALMILDDQTNKLKSGVDQMDLFGDMSTPPDLNSPTESKDILLVDLNSEIDTNQNSLRENPFLTNGITSCSLPRPTPQASFLPENAFSANLNFFPTPNPDPFRDDPFTQPDQSTPSSFDSLKSPDQKKENSSSSSTPLSNGPLNGDVDYFGQQFDQISNRTGKQEAQAGPWPFSSSQTQPAVRTQNGVSEREQNGFSVKSSPNPFVGSPPKGLSIQNGVKQDLESSVQSSPHDSIAIIPPPQSTKPGRGRRTAKSSANDLLASDIFAPPVSEPSGQASPTGQPTALQPNPLDLFKTSAPAPVGPLVGLGGVTVTLPQAGPWNTASLVFNQSPSMAPGAMMGGQPSGFSQPVIFGTSPAVSGWNQPSPFAASTPPPVPVVWGPSASVAPNAWSTTSPLGNPFQSNIFPAPAVSTQPPSMHSSLLVTPPQPPPRAGPPKDISSDAFTALDPLGDKEIKDVKEMFKDFQLRQPPAVPARKGEQTSSGTLSAFASYFNSKVGIPQENADHDDFDANQLLNKINEPPKPAPRQVSLPVTKSTDNAFENPFFKDSFGSSQASVASSQPVSSEMYRDPFGNPFA
binding: binds
